Measured values published in paper PMC8041783.
These are yes or no findings as the source states them, for the method shown. For some assays here: Binding seen in cells or lysates may run through a third protein. Some results given as binding are weak or reduced against the parent protein; the word gives no strength. For some assays here: Tags and fused reporters may be left off the sequences shown.

Assays:
[1] = target: His-FliI (Salmonella enterica) (UniProt P26465); assay: pull-down; Ni-NTA affinity chromatography of lysates of S. enterica SJW1368 co-expressing untagged FliH with His-FliI or its variants; wash 20 mM Tris-HCl pH 8.0, 500 mM NaCl, 50 mM imidazole; stepwise elution with 100, 250, 500 mM imidazole; SDS-PAGE with CBB
[2] = target: T1, His-FliI (Salmonella enterica), P26465; assay: negative-stain electron microscopy; purified FliI 1 μM in 50 mM Tris-HCl pH 8.0, 113 mM NaCl, 0.8 mM EDTA, 1 mM DTT with 5 mM MgCl2, 5 mM ADP, 5 mM AlCl3, 15 mM NaF, 20 min at room temperature; uranyl acetate stain; reference-free 2D class averages (RELION); monomers to hexameric ring; both purified; details: remark: other sources report otherwise
T1 chain: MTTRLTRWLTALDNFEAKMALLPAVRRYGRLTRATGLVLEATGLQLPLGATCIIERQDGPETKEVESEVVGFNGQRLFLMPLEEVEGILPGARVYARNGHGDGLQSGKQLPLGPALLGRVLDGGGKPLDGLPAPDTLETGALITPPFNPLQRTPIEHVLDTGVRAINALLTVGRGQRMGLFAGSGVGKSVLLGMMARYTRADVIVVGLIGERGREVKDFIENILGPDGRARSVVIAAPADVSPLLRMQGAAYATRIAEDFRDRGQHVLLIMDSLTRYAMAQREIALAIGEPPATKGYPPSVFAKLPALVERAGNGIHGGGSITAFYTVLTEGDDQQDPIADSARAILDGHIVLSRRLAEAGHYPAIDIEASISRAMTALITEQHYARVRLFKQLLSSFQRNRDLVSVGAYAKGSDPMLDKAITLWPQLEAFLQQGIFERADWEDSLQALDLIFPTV

B1: FliH (protein, UniProt P15934 1-235)
chain: MSNELPWQVWTPDDLAPPPETFVPVEADNVTLTEDTPEPELTAEQQLEQELAQLKIQAHEQGYNAGLAEGRQKGHAQGYQEGLAQGLEQGQAQAQTQQAPIHARMQQLVSEFQNTLDALDSVIASRLMQMALEAARQVIGQTPAVDNSALIKQIQQLLQQEPLFSGKPQLRVHPDDLQRVEEMLGATLSLHGWRLRGDPTLHHGGCKVSADEGDLDASVATRWQELCRLAAPGVL
With B1 the binding [1] was “binds”.

B2: His-FliI, P26465 1-456 (enzyme)
chain: MTTRLTRWLTALDNFEAKMALLPAVRRYGRLTRATGLVLEATGLQLPLGATCIIERQDGPETKEVESEVVGFNGQRLFLMPLEEVEGILPGARVYARNGHGDGLQSGKQLPLGPALLGRVLDGGGKPLDGLPAPDTLETGALITPPFNPLQRTPIEHVLDTGVRAINALLTVGRGQRMGLFAGSGVGKSVLLGMMARYTRADVIVVGLIGERGREVKDFIENILGPDGRARSVVIAAPADVSPLLRMQGAAYATRIAEDFRDRGQHVLLIMDSLTRYAMAQREIALAIGEPPATKGYPPSVFAKLPALVERAGNGIHGGGSITAFYTVLTEGDDQQDPIADSARAILDGHIVLSRRLAEAGHYPAIDIEASISRAMTALITEQHYARVRLFKQLLSSFQRNRDLVSVGAYAKGSDPMLDKAITLWPQLEAFLQQGIFERADWEDSLQALDLIFPTV
With B2 the binding [2] was “no binding (tested: 1 μM)”.
